The entries are a selection whose mix differs from that of the whole data set. Single values of this set are uncertain.
Compound: COC(=O)/C=C/c1ccccc1 [methyl cinnamate]
Assay: log2 ratio of iodoacetamide-alkyne labeling of the cysteine site, DMSO over compound (competition); higher = stronger covalent engagement of the cysteine by the compound, active = 1 or more
Details: 500 µM; treatment time 1 h; system: HEK293T cell lysate
Outline: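 After 1 h at ambient temperature with vehicle or electrophile (500 µM), HEK293T lysate (2 mg/mL) was labelled for 1 h with iodoacetamide alkyne and clicked to sCIP-TMT reagents. Pooled samples were trypsin-digested overnight at 37 °C, streptavidin-enriched, acid-eluted and analysed by Orbitrap Eclipse LC-MS/MS with FAIMS, then quantified in FragPipe over three replicates with duplicate channels. A cysteine's log2 competition ratio is its mean control-channel over mean compound-channel reporter intensity. Cysteines quantified in only one replicate were not included.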

Sequences of proteins named here, by UniProt entry; tags and fusion partners are left off. A change or cut given only in a name is not applied to a line headed by its entry.
UniProt Q99575: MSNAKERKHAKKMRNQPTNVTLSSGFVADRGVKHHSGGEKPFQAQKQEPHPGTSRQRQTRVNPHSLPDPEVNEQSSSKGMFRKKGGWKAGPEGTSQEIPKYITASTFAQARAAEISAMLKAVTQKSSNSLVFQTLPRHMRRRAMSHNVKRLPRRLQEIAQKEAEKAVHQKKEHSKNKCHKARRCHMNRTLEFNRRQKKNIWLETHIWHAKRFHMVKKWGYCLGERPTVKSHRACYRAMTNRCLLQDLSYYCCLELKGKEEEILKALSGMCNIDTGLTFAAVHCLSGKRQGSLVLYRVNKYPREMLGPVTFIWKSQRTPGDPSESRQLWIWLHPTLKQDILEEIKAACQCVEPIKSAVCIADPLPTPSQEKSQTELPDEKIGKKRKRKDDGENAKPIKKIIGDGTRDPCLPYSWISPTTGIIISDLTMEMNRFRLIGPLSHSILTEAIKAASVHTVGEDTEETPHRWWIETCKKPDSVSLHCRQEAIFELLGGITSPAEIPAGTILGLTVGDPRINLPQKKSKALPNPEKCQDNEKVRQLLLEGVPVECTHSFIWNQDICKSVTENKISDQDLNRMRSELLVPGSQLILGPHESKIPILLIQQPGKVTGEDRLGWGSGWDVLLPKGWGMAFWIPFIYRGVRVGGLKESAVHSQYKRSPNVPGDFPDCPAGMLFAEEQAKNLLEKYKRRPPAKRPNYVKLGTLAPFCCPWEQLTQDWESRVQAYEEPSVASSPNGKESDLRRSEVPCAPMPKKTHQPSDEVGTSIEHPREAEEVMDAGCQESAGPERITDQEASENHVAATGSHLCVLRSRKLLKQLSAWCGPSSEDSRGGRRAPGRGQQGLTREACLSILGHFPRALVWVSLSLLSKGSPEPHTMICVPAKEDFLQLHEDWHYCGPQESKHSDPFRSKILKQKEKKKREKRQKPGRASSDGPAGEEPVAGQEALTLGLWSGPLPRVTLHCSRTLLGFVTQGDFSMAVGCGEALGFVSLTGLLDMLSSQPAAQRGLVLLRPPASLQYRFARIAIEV
UniProt Q99497, whole entry, looked up: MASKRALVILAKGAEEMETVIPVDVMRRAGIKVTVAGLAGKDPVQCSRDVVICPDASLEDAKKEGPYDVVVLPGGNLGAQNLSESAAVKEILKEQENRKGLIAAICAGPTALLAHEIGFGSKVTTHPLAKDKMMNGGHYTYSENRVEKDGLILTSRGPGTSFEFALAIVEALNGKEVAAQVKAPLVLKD
UniProt Q96RE7: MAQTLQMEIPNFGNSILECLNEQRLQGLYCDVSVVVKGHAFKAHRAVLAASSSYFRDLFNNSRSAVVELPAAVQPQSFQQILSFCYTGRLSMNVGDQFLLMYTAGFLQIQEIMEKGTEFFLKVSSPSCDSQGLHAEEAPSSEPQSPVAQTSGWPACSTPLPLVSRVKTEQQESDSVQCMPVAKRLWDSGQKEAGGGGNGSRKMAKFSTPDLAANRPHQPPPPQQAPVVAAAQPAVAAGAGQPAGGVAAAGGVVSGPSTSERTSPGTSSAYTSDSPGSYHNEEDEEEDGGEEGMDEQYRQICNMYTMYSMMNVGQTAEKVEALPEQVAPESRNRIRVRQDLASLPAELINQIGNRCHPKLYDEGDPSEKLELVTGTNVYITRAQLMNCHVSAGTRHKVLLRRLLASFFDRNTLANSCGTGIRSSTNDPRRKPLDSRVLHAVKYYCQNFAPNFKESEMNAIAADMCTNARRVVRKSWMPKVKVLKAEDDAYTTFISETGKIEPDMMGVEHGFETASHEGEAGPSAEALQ
UniProt Q96KR1: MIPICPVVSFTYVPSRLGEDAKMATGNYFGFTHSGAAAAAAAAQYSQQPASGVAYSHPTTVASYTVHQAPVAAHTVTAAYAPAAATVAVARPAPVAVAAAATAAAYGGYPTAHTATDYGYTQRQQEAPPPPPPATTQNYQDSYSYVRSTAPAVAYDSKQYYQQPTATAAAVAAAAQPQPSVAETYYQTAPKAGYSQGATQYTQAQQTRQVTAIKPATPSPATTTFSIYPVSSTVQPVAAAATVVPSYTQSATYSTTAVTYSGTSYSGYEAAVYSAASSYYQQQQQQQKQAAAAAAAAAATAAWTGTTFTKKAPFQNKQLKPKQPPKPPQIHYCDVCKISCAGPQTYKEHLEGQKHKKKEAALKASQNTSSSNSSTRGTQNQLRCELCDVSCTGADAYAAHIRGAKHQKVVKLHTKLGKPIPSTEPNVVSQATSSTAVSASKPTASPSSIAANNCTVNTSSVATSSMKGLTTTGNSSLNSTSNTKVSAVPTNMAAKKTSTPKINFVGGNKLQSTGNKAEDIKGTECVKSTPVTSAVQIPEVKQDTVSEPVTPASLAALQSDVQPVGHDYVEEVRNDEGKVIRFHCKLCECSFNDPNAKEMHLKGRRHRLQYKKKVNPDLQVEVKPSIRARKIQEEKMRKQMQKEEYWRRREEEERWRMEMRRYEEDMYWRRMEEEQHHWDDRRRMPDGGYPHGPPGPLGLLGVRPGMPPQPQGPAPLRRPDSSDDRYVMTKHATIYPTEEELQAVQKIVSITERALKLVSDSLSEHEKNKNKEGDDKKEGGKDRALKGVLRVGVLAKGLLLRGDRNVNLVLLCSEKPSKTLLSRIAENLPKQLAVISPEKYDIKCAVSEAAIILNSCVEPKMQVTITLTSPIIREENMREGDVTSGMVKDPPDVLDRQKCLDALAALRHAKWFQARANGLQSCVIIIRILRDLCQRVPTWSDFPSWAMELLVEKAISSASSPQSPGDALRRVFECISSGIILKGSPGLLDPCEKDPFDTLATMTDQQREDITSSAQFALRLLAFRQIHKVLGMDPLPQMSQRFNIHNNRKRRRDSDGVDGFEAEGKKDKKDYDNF
UniProt Q96KQ7: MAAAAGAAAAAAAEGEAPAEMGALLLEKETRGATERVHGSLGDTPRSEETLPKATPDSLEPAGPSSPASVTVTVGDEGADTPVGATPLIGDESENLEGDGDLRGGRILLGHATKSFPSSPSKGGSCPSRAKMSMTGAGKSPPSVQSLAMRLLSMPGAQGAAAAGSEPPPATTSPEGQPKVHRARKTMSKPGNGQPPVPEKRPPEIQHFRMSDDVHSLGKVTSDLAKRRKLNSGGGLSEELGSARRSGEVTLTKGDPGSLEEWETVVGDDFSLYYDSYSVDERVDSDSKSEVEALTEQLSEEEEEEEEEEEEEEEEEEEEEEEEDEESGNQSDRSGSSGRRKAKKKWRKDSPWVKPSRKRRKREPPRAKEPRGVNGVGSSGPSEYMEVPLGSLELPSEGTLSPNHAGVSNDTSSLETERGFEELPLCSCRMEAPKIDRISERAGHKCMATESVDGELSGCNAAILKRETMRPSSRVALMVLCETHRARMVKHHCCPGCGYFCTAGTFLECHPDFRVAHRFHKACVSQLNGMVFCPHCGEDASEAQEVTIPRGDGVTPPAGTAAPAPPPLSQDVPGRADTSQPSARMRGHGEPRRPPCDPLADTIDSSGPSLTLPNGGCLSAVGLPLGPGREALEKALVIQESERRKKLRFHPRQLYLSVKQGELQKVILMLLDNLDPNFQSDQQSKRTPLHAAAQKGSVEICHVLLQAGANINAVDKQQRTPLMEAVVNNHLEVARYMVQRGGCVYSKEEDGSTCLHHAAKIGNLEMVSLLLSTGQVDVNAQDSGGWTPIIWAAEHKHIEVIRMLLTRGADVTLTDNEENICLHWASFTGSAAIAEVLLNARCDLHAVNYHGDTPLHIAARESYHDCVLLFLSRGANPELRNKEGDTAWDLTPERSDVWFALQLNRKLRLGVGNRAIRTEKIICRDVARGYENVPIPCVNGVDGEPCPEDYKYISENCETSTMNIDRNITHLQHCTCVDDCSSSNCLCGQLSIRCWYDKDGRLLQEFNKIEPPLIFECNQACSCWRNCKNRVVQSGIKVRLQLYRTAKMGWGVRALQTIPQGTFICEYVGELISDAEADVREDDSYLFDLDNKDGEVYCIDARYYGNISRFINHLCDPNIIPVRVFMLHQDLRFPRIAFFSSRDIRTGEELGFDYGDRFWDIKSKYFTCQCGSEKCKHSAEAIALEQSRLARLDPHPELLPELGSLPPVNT
UniProt Q99704: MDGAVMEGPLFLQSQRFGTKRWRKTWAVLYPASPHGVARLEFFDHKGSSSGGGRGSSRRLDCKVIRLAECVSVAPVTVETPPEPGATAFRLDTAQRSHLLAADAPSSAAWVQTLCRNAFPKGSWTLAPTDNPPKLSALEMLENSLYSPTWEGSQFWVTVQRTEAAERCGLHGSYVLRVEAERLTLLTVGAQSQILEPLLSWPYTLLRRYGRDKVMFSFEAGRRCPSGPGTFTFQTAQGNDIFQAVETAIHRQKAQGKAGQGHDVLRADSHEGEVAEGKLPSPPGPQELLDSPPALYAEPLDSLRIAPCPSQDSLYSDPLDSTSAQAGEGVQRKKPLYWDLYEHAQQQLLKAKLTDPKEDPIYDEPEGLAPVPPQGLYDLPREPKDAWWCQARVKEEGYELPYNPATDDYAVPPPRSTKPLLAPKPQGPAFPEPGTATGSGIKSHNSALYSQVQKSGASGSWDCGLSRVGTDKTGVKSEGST
UniProt Q99986: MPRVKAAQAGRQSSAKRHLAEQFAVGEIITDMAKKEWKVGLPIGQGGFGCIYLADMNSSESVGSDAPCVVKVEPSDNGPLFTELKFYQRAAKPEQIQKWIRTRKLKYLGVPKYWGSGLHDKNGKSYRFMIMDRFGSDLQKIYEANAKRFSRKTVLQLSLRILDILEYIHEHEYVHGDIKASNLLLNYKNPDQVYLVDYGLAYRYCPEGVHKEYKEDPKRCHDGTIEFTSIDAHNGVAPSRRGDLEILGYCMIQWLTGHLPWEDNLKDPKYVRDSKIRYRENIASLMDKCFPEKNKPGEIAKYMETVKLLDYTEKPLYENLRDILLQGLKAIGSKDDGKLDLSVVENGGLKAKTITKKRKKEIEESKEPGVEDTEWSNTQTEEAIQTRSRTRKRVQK
UniProt Q96I25: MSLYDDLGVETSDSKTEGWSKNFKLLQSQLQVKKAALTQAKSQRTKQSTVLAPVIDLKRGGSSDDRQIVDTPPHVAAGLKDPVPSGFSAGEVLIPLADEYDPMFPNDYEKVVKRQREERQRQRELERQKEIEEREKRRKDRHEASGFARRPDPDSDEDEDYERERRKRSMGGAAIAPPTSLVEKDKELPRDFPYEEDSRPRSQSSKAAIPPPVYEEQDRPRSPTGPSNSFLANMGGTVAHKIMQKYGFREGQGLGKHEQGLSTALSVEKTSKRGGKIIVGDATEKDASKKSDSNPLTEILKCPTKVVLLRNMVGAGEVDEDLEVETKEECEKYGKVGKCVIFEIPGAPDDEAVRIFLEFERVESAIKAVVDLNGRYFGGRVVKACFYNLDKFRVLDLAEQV
UniProt Q9BQ24: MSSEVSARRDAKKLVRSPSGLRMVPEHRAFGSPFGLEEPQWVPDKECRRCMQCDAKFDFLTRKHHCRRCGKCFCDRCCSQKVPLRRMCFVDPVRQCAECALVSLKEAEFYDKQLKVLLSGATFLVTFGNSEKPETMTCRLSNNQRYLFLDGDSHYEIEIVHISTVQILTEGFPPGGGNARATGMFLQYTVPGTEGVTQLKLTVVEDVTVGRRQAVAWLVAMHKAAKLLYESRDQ
UniProt Q96SZ5, whole entry, looked up: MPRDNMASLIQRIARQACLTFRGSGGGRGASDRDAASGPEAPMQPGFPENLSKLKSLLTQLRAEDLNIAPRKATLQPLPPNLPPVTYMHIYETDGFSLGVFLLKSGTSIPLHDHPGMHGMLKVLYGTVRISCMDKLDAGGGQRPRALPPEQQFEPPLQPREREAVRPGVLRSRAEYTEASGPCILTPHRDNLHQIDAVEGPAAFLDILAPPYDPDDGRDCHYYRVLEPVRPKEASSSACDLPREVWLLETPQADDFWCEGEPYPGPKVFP
UniProt Q9BQ39: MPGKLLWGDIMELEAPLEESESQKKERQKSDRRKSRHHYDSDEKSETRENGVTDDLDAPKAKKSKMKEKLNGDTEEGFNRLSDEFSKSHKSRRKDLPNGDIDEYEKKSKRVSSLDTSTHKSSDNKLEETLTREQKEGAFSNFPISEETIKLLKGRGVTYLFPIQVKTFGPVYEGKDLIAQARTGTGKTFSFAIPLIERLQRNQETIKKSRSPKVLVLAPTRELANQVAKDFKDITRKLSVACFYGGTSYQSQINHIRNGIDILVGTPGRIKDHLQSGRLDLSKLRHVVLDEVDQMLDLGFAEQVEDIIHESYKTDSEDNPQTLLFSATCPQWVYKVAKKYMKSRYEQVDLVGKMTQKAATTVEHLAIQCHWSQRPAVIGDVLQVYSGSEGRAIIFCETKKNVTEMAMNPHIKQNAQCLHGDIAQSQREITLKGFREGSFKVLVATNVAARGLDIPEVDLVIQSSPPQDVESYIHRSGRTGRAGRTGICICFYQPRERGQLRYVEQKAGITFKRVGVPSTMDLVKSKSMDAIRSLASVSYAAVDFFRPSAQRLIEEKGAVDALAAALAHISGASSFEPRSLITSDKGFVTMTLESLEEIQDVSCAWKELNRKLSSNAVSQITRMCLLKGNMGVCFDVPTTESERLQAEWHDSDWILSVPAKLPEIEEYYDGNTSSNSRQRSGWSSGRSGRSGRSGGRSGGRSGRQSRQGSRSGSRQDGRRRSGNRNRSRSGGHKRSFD

log2 ratio of iodoacetamide-alkyne labeling, inactive:
POP1 C777 (UniProt Q99575) 0.442, PIK3R4 C759 (UniProt Q99570) -0.235, PARK7 C46 (UniProt Q99497) 0.117, NACC1 C464 (UniProt Q96RE7) 0.0736, SH3GL1 C277 (UniProt Q99961) 0.21, ZFR C922 (UniProt Q96KR1) 0.0846, EHMT2 C1115 (UniProt Q96KQ7) 0.309, CLCC1 C550 (UniProt Q96S66) 0.189, UHRF1 C512 (UniProt Q96T88) 0.119, PSMD1 C898 (UniProt Q99460) 0.159, DOK1 C308 (UniProt Q99704) 0.346, DNAJC7 C7 (UniProt Q99615) -0.0174, NSD1 C2508 (UniProt Q96L73) 0.482, SMG1 C3401 (UniProt Q96Q15) -0.254, VRK1 C250 (UniProt Q99986) -0.321, CCT7 C158 (UniProt Q99832) 0.195, WRNIP1 C39 (UniProt Q96S55) 0.0719, RPRD1A C100 (UniProt Q96P16) 0.0914, MACROD1 C186 (UniProt Q9BQ69) 0.0422, RBM17 C302 (UniProt Q96I25) 0.0897, ZFYVE21 C47 (UniProt Q9BQ24) -0.0368, AKAP9 C2571 (UniProt Q99996) 0.327, ATAD5 C1529 (UniProt Q96QE3) 0.116, UniProt Q96PU8_C35 0.091, POP1 C705 (UniProt Q99575) 0.0494, TUBA1C C376 (UniProt Q9BQE3) 0.211, ADO C239 (UniProt Q96SZ5) 0.206, ZFR C525 (UniProt Q96KR1) 0.86, UniProt Q99590_C450 0.165, MED15 C660 (UniProt Q96RN5) 0.0718, ZFR C812 (UniProt Q96KR1) 0.194, UniProt Q9BPU6_C22 -0.0275, SPAG5 C1035 (UniProt Q96R06) 0.213, FUBP3 C460 (UniProt Q96I24) 0.228, POP1 C745 (UniProt Q99575) 0.298, DDX50 C633 (UniProt Q9BQ39) 0.161, FAM110A C114 (UniProt Q9BQ89) 0.298

Source: the supplement of paper PMC11006884
